The campaign covered roughly 360,000 compounds. About 780 (0.22%) were called active. The shares of active, inactive and inconclusive entries below differ from those in the screen. No stated cut-off is given here; in the data, active means inhibition above about 35% (passing the limit was not always enough); inconclusive means no clear call, values can overlap the other calls.
What follows are molecules tested on Botulinum neurotoxin type F light chain protease (Clostridium botulinum) (assay: BoNT/F light chain protease inhibitors, primary screen, biochemical, flow cytometry, MLPCN library (AID 588497; further: plate controls were buffer without enzyme for full effect and enzyme alone for no effect)). Conditions: Multiplex microsphere protease cleavage assay, at 10 µM, hits give high values.

| SMILES | inhibition |
| --- | --- |
| Cc1cc(-c2onc(C)c2C(=O)Nc2ccc(C(F)(F)F)cc2)no1 | inconclusive: 37.7% |
| CCOC(=O)C1=NNC2C(=O)N(Cc3ccccc3)C(=O)C12 (stereo not given) | inconclusive: 111% |
| COc1ccc(Cn2c(-c3ccco3)nc3c(c(=O)c4ccccc4n3C)c2=O)cc1 | inconclusive: -30.5% |
| Cc1cc(C)c2cc(CN(CCN3CCCC3)C(=O)Nc3ccc(F)cc3)c(=O)[nH]c2c1 | active: 61.8% |
| O=C(O)c1ccccc1NS(=O)(=O)c1cccc2nsnc12 | inconclusive: 19.6% |
| O=C(NC(=S)Nc1ccc(N2CCCCC2)c(Cl)c1)c1ccc2c(c1)OCCO2 | inactive: 9.7% |
| O=C1CC(Cc2ccc(Cl)cc2)C(=O)N1c1cc(Cl)ccn1 (stereo not given) | inconclusive: -74.4% |
| CC(C)(C)OC(=O)N1CCC[C@H]1c1nnc(SCc2c(Cl)cccc2Cl)o1 | inconclusive: -10.1% |
| CS(=O)(=O)c1ccc(Cl)c(NC(=O)COC(=O)CCN2C(=O)C3CC=CCC3C2=O)c1 (stereo not given) | inactive: 0.2% |
| CCOc1ccc(NC(=O)CN2CCN(CC(=O)Nc3cccc(F)c3)CC2)cc1 | inactive: -28.7% |
| O=C(c1ccc(F)cc1)N1CCN(C2CCCCC2)CC1 | inconclusive: 1.4% |
| O=C(NC(=S)Nc1ccc(CN2CCCCC2)cc1)c1cc2ccccc2o1 | inconclusive: -78.4% |
| COc1ccc(OC)c(/C=N/NC(=O)c2c(C)nc3ccc(C)cn23)c1 | inactive: -12.7% |
| CCc1nc2ccccc2c(C(=O)Nc2cccc(C)c2)c1C | inconclusive: -1.2% |
| COc1cccc(C2=NOC(C(=O)Nc3cccnc3Cl)C2)c1OC (stereo not given) | inactive: 0.3% |
| C[C@@H]1CN([C@@H](C)CO)C(=O)c2cc(C#Cc3ccccc3)cnc2O[C@@H]1CN(C)Cc1ccccn1 | inactive: -0.4% |
| COc1ccc(N(CC(=O)N/N=C/c2ccc(-c3ccc([N+](=O)[O-])cc3)o2)S(=O)(=O)c2ccc(C)cc2)cc1Cl | active: 42.2% |
| CN1c2ccccc2C(O)=C(C(=S)Nc2ccccc2)S1(=O)=O | inactive: -17.8% |
| COCCn1c(SCC(=O)Nc2ccc(F)cc2)nc2c(c1=O)SCC2 | inactive: 0% |
| O=C(Nc1cc(Cl)ccc1N1CCCCC1)c1cccs1 | inconclusive: 29.3% |
| O=S(=O)(CC(CN1CCCC1)N1CCCC1)c1ccc2ccccc2c1 (stereo not given) | inactive: 7.4% |
| O=C(CSC1CN(C(c2ccccc2)c2ccccc2)C1)N/N=C/c1ccc(Cl)cc1Cl | inconclusive: 13.7% |
| CCOC(=O)C1=CCN(S(=O)(=O)c2ccccc2C)C1c1ccc(F)cc1 (stereo not given) | inactive: -2.9% |

| SMILES | inhibition |
| --- | --- |
| CC1(C)Cc2c(C#N)c(NCCO)nc(-c3ccco3)c2CO1 | inactive: 1.9% |
| O=Cc1c(N2CCC3(CC2)OCCO3)nc2ccccn2c1=O | inconclusive: 9.5% |
| Cc1ccccc1NC(=O)NCc1ccccn1 | inconclusive: 5.6% |
| COc1ccc(-c2c(C)nn3c(NC4CCCC4)cc(C)nc23)cc1OC | inconclusive: -0.4% |
| CCN1CCCC1CNC(=O)c1cc(OC)c(OC)c(OC)c1 (stereo not given) | inactive: 11.1% |
| COc1ccc(CC(=O)Nc2nnc(C(C)(C)C)s2)cc1OC | inactive: -6.2% |
| NS(=O)(=O)c1ccc(NC2=CC(=O)C(=O)c3ccccc32)cc1 | inactive: -24.2% |
| COCCCNC(=O)C1CCCN(S(C)(=O)=O)C1 (stereo not given) | inactive: -25.7% |
| COCCCNC(=S)N(CCCO)Cc1cc2cc3c(cc2[nH]c1=O)OCO3 | inconclusive: -41.3% |
| Cc1ccnc(NC(=O)c2oc3ccccc3c2C)c1 | inconclusive: -8.3% |
| CC1(C(=O)NCC2CC2)CCN1C(=O)C1(c2ccc(Cl)cc2)CC1 (stereo not given) | inactive: -6.6% |
| CC(C)OC(=O)CSc1nnc(-c2cnccn2)n1-c1ccc(Cl)cc1 | inactive: -6.7% |
| COc1ccc(CCNC(=O)CNS(=O)(=O)c2ccc(F)c(Cl)c2)cc1OC | inactive: 0.4% |
| O=C(Nc1ccccc1C(=O)O)c1cccc(NC(=O)c2ccccc2Br)c1 | inconclusive: 30.6% |
| CCOc1ncccc1C(=O)Nc1nnc(C2CC2)s1 | inactive: 0.1% |
| CC(=O)Oc1ccc(N(C(C)=O)S(=O)(=O)c2ccc(C)cc2)c2ccccc12 | inconclusive: 66.3% |
| Cc1ccnc(NC2c3ccccc3C(=O)N2Cc2ccccc2Cl)c1 (stereo not given) | inactive: -5.5% |
| c1ccc(-c2nc(NCc3ccco3)c3oc4ccccc4c3n2)cc1 | inactive: 2.3% |
| Cc1ccccc1NC1=C/C(=N\S(=O)(=O)c2cccs2)c2ccccc2C1=O | inconclusive: -19.6% |
| Cc1ccc(NC(=S)NC2CCCC2)c(C)c1 | inconclusive: 8.3% |
| O=C(c1cnn(C(=O)c2cccc(S(=O)(=O)N3CCOCC3)c2)c1)c1ccccc1O | inactive: -2.9% |
| COc1ccc(C(=S)N2CCN(c3cccc(Cl)c3)CC2)c(OC)c1 | inactive: -5.3% |
| O=C(CN1CCN(Cc2ccc3c(c2)OCO3)CC1)c1c[nH]c2ccccc12 | inconclusive: -3.8% |

| SMILES | inhibition |
| --- | --- |
| CCC(C)c1ccccc1NC(=O)C(C)N(C)Cc1cccc(OC)c1 (stereo not given) | inactive: 0.7% |
| CCN(C(=O)/C=C/c1ccc(OC)cc1)C1CCCCC1 | inconclusive: -9.8% |
| COCCOC(=O)c1[nH]c2c(c1C)C(=O)CC(c1cc(OC)c(OC)c(OC)c1)C2 (stereo not given) | inconclusive: 12.4% |
| C/C(=N/Nc1nc(C)c(C)s1)c1cccc([N+](=O)[O-])c1 | inconclusive: -36% |
| CC(C)(C)n1cnnc1Sc1ccc([N+](=O)[O-])cn1 | inconclusive: 43.6% |
| Cc1cccc(C)c1N1CCN(c2c(C)cccc2C)CC1 | inconclusive: 38.7% |
| c1ccc(Cc2ccc(OCCN3CCOCC3)cc2)cc1 | inconclusive: 13.8% |
| O=C(NCc1ccccc1F)c1ccc(S(=O)(=O)N2CCCCCC2)cc1 | inactive: 4.4% |
| COc1ccc(C(=O)NC(C)(C)C)cc1S(=O)(=O)N1CCCC1 | inactive: -0.1% |
| Cc1ccc2[nH]c(C(F)(F)F)cc(=O)c2c1 | inconclusive: -90.6% |
| CCOc1ccc(N2C(=O)CC(N3CCN(c4ccc([N+](=O)[O-])cc4)CC3)C2=O)cc1 (stereo not given) | inconclusive: -4.3% |
| CC(=O)N(C)c1ccc(NC(=O)C(c2ccccc2)c2ccccc2)cc1 | inconclusive: -23.3% |
| COc1ccc2[nH]c3c(c2c1)CCN1C(=O)C(CC(=O)NC(C)(C)C)C[C@H](C(=O)N2CCCCC2)[C@@]31C (stereo not given in full) | inactive: -2% |
| O=C(CSCc1ccccc1)Nc1ccc2c(c1)OCO2 | inconclusive: -35.7% |
| Cc1ccc(NC(=O)CSc2nc(NS(=O)(=O)c3ccc(C)cc3)cc(=O)[nH]2)cc1 | inactive: 3.7% |
| Cc1cccc(NC(=O)c2ccc(N3CCOCC3)c([N+](=O)[O-])c2)n1 | inactive: -4.1% |
| Cc1cn(C(=O)c2ccccc2)c(=S)n1-c1ccc(Cl)cc1 | inactive: -1.7% |
| CCOP(=O)(OCC)/C(=N/OC(=O)c1cccc([N+](=O)[O-])c1)C(N)=O | inconclusive: 9.5% |
| COc1cccc(C(=O)N2CCN(Cc3cc(Br)ccc3OC)CC2)c1 | inconclusive: -19.2% |
| CC(C)c1ccc(-n2c(O)c(/C=N/N3CCOCC3)c(=O)[nH]c2=S)cc1 | inconclusive: -107% |
| COc1cc(C(=O)N(C)CC2CCN(CCc3cccc(C(F)(F)F)c3)CC2)ccc1C | inconclusive: -37.3% |
| Cc1cccc(C(=O)NCC(=O)N2CCN(S(=O)(=O)c3cc(C)ccc3C)CC2)c1 | inconclusive: -5.3% |
| CCc1ccccc1N(CC(=O)NC(C)c1ccccc1)S(C)(=O)=O (stereo not given) | inconclusive: 8.5% |

Looked up by compound from the list above (7):

| SMILES | inhibition |
| --- | --- |
| O=C(CN1CCN(Cc2ccc3c(c2)OCO3)CC1)c1c[nH]c2ccccc12 | inconclusive: -3.8% |
| O=C(NCc1ccccc1F)c1ccc(S(=O)(=O)N2CCCCCC2)cc1 | inactive: 4.4% |
| COc1ccc(CCNC(=O)CNS(=O)(=O)c2ccc(F)c(Cl)c2)cc1OC | inactive: 0.4% |
| CCOc1ccc(NC(=O)CN2CCN(CC(=O)Nc3cccc(F)c3)CC2)cc1 | inactive: -28.7% |
| Cc1cc(C)c2cc(CN(CCN3CCCC3)C(=O)Nc3ccc(F)cc3)c(=O)[nH]c2c1 | active: 61.8% |
| CC(=O)N(C)c1ccc(NC(=O)C(c2ccccc2)c2ccccc2)cc1 | inconclusive: -23.3% |
| O=S(=O)(CC(CN1CCCC1)N1CCCC1)c1ccc2ccccc2c1 (stereo not given) | inactive: 7.4% |

(cont.)

| SMILES | inhibition |
| --- | --- |
| Cc1ccc(S(=O)(=O)NC(=O)c2cc(C)n(CCCN3CCOCC3)c2C)cc1 | inactive: -7.8% |
| CC(C#N)Sc1ccc(S(=O)(=O)N(C)C2CCCCC2)cn1 (stereo not given) | inactive: 0.9% |
| O=C(O)C1C2CCC(O2)C1C(=O)Nc1ccc(Br)cc1F (stereo not given) | inconclusive: 19.7% |
| Cc1cc(=O)oc2cc(OCCC[n+]3ccccc3)ccc12 | inconclusive: 54.9% |
| C=C1c2cc3c(cc2NC(=S)N1Cc1ccccc1)OCO3 | inconclusive: -3% |
| C=CCNC(=S)NNc1nc(N2CCCC2)nc(N2CCCC2)n1 | inconclusive: -19.3% |
| Cn1c(SCc2cccc(F)c2)nnc1-c1cnccn1 | inconclusive: -5.5% |
| CN(CCCC1CCCC1)C(=O)CC1C(=O)NCCN1Cc1cccc(F)c1F (stereo not given) | inactive: 5.6% |
| CC(=O)c1ccc(OC2(C)CCN(Cc3ccc4c(c3)OCCO4)C2)cc1 (stereo not given) | inactive: -6.1% |
| Cc1ccc(NC(=O)Cc2ccc(Cl)cc2)nc1 | inconclusive: -4.9% |
| CC(=O)Nc1nc(C)c(CCC2OCCO2)c(=O)[nH]1 | inactive: 16.7% |
| Cc1cc(C(=O)Nc2ccccc2N2CCOCC2)c(C)o1 | inconclusive: -9.5% |
| CCc1cccc(C)c1NS(=O)(=O)Cc1ccccc1 | inconclusive: -9% |
| CCN1C(=O)C(CC(=O)Nc2ccc(OC)cc2)N(CCc2ccccc2F)C1=S (stereo not given) | inconclusive: -28.6% |
| O=CNCCc1nc2ccccc2n1CCc1ccccc1 | inconclusive: -12.1% |
| COCc1cc(OC)nc(-c2csc(C)n2)n1 | inconclusive: -6.5% |
| Cc1ccc(C)c(OCc2cc(C(=O)NC(c3ccccn3)C(F)(F)F)no2)c1 (stereo not given) | inactive: -12.5% |
| CC(=O)Nc1ccc(-c2ccnc3c2CC(C)(C(=O)Nc2ccccc2)O3)cc1 (stereo not given) | inactive: 2.8% |
| O=C(Nc1ccc(N2CCOCC2)c2nonc12)C1CCCC1 | inconclusive: -67.2% |
| CCOc1ccc(NC(=O)CSc2nc3ccccc3c(=O)n2CCNC(C)=O)cc1 | inactive: 2.2% |
| CCNC(=O)CSc1nnc(-c2cccc(S(=O)(=O)N(CC)CC)c2)n1CCc1ccccc1 | inactive: -0.4% |

Reference: PubChem BioAssay AID588497 (NMMLSC, 2011)
